According to publication PMC5732324:
Results are given in words; binding and its absence hold for the method and conditions named. In cells and extracts the contact can be indirect. Some binding calls cover weakened binding; strength is not graded here. For some of these results: Tags and fused reporters may be left off the sequences shown.

By UniProt entry, the sequences of proteins in these tests, tags left out. Residues count along the entry.
UniProt P11142: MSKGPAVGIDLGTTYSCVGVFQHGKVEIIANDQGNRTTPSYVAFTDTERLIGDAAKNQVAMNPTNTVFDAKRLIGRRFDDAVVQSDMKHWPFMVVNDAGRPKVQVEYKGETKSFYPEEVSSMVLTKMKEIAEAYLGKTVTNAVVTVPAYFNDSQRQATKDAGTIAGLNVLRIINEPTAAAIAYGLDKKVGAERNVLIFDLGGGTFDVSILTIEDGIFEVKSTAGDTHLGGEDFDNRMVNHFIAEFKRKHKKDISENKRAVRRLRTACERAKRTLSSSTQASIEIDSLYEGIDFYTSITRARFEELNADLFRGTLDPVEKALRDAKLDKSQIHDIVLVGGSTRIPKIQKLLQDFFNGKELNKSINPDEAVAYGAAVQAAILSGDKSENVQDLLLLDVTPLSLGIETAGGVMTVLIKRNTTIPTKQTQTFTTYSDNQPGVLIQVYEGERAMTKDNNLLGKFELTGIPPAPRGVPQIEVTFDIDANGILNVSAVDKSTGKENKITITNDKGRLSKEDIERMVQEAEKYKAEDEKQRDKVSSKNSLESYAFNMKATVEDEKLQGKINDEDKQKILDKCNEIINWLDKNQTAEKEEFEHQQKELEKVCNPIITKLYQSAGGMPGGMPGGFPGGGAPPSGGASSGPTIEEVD
UniProt P11021, residues 19-654: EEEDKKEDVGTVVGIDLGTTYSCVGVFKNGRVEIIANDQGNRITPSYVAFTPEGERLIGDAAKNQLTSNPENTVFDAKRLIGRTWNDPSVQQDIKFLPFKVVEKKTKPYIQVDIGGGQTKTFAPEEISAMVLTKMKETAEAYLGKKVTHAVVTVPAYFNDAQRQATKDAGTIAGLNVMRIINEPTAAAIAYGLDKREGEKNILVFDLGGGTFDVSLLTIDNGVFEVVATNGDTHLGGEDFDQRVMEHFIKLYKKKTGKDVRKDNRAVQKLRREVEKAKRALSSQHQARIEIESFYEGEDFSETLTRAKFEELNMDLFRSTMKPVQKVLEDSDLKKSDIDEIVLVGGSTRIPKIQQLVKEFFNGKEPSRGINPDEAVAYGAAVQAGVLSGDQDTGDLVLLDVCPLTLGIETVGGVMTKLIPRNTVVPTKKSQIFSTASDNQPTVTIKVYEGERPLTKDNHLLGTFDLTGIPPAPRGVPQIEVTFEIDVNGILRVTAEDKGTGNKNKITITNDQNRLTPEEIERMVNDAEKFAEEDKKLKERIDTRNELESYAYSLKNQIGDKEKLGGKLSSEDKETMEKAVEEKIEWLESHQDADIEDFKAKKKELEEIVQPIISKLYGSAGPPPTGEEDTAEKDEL

Tests used:
[1] = target: HSPA8 (human (endogenous in U251)) (UniProt P11142); assay: co-IP; 10^7 cells (HEK293 or U251-pcDNA3.1 LRRC4) lysed with GLB+ buffer; antibodies incubated with the lysate, then Protein G beads; Western blotting
[2] = target: HSPA5 (human (endogenous in U251)) (UniProt P11021); assay: as above
[3] = target: T1, phosphoinositide-dependent protein kinase 1 (human (endogenous in HEK293 and U251)) (UniProt O15530); assay: as above
T1 sequence: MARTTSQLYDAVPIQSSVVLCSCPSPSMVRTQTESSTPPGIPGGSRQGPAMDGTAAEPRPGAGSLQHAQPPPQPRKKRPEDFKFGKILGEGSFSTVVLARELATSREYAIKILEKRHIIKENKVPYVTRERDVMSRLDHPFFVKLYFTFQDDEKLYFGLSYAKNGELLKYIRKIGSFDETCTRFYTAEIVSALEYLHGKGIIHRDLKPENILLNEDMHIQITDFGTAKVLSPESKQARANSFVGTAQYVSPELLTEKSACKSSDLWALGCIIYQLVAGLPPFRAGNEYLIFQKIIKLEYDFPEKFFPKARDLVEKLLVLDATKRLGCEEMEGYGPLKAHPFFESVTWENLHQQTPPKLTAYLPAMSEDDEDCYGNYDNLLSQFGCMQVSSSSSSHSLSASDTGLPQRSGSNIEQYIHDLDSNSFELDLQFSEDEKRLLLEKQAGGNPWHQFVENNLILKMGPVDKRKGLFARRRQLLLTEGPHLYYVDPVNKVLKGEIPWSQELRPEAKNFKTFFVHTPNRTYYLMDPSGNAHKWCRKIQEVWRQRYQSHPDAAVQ

GST-PDPK1 PH domain = target: T2, GST-PDPK1 PH domain (UniProt O15530); assay: pull-down; GST-PDPK1 domains or GST-HSP90 domains from bacterial lysates on glutathione-Sepharose 4B beads, incubated with cell lysates containing LRRC4; eluted and run on a gel; only the target purified
T2 sequence: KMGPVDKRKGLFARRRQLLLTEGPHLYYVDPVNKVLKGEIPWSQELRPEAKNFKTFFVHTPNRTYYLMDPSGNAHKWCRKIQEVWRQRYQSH

binding [1]: no binding
binding [2]: no binding
binding [3]: binds
binding (GST-PDPK1 PH domain): binds
B1: Leucine-rich repeat (LRR) C4 protein (protein, UniProt Q9HBW1 39-653)
chain: ASAGPQNCPSVCSCSNQFSKVVCTRRGLSEVPQGIPSNTRYLNLMENNIQMIQADTFRHLHHLEVLQLGRNSIRQIEVGAFNGLASLNTLELFDNWLTVIPSGAFEYLSKLRELWLRNNPIESIPSYAFNRVPSLMRLDLGELKKLEYISEGAFEGLFNLKYLNLGMCNIKDMPNLTPLVGLEELEMSGNHFPEIRPGSFHGLSSLKKLWVMNSQVSLIERNAFDGLASLVELNLAHNNLSSLPHDLFTPLRYLVELHLHHNPWNCDCDILWLAWWLREYIPTNSTCCGRCHAPMHMRGRYLVEVDQASFQCSAPFIMDAPRDLNISEGRMAELKCRTPPMSSVKWLLPNGTVLSHASRHPRISVLNDGTLNFSHVLLSDTGVYTCMVTNVAGNSNASAYLNVSTAELNTSNYSFFTTVTVETTEISPEDTTRKYKPVPTTSTGYQPAYTTSTTVLIQTTRVPKQVAVPATDTTDKMQTSLDEVMKTTKIIIGCFVAVTLLAAAMLIVFYKLRKRHQQRSTVTAARTVEIIQVDEDIPAATSAAATAAPSGVSGEGAVVLPTIHDHINYNTYKPAHGAHWTENSLGNSLHPTVTTISEPYIIQTHTKDKVQETQI
